Article PMC4742909
Results are given in words; binding and its absence hold for the method and conditions named. Binding seen in cells or lysates may run through a third protein. Some entries that bind do so weakly or less than the wild type.

Protein sequences, listed by entry. Tags and fused reporters are not part of them. Residues count along the entry.
UniProt Q6PHU5, residues 74-825: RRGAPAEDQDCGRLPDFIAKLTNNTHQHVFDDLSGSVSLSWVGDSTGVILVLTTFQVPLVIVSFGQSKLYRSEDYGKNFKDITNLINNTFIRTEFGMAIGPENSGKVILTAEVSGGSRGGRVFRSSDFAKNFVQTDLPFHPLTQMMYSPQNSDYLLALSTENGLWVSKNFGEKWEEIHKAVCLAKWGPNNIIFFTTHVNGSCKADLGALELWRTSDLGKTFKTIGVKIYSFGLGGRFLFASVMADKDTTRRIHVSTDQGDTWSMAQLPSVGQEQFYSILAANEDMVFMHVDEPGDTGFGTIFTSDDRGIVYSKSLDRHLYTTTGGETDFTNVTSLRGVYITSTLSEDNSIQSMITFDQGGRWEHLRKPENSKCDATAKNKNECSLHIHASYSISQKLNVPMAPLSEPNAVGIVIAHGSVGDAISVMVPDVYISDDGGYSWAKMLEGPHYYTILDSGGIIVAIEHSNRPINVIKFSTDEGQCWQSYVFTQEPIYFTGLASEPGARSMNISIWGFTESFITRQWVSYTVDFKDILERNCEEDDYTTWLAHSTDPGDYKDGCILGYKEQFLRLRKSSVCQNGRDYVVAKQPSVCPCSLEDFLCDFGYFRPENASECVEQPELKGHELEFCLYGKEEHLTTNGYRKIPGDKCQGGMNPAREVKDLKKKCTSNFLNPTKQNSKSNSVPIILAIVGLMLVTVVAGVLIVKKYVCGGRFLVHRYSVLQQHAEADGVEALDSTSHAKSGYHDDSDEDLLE
UniProt O88307, residues 82-2215: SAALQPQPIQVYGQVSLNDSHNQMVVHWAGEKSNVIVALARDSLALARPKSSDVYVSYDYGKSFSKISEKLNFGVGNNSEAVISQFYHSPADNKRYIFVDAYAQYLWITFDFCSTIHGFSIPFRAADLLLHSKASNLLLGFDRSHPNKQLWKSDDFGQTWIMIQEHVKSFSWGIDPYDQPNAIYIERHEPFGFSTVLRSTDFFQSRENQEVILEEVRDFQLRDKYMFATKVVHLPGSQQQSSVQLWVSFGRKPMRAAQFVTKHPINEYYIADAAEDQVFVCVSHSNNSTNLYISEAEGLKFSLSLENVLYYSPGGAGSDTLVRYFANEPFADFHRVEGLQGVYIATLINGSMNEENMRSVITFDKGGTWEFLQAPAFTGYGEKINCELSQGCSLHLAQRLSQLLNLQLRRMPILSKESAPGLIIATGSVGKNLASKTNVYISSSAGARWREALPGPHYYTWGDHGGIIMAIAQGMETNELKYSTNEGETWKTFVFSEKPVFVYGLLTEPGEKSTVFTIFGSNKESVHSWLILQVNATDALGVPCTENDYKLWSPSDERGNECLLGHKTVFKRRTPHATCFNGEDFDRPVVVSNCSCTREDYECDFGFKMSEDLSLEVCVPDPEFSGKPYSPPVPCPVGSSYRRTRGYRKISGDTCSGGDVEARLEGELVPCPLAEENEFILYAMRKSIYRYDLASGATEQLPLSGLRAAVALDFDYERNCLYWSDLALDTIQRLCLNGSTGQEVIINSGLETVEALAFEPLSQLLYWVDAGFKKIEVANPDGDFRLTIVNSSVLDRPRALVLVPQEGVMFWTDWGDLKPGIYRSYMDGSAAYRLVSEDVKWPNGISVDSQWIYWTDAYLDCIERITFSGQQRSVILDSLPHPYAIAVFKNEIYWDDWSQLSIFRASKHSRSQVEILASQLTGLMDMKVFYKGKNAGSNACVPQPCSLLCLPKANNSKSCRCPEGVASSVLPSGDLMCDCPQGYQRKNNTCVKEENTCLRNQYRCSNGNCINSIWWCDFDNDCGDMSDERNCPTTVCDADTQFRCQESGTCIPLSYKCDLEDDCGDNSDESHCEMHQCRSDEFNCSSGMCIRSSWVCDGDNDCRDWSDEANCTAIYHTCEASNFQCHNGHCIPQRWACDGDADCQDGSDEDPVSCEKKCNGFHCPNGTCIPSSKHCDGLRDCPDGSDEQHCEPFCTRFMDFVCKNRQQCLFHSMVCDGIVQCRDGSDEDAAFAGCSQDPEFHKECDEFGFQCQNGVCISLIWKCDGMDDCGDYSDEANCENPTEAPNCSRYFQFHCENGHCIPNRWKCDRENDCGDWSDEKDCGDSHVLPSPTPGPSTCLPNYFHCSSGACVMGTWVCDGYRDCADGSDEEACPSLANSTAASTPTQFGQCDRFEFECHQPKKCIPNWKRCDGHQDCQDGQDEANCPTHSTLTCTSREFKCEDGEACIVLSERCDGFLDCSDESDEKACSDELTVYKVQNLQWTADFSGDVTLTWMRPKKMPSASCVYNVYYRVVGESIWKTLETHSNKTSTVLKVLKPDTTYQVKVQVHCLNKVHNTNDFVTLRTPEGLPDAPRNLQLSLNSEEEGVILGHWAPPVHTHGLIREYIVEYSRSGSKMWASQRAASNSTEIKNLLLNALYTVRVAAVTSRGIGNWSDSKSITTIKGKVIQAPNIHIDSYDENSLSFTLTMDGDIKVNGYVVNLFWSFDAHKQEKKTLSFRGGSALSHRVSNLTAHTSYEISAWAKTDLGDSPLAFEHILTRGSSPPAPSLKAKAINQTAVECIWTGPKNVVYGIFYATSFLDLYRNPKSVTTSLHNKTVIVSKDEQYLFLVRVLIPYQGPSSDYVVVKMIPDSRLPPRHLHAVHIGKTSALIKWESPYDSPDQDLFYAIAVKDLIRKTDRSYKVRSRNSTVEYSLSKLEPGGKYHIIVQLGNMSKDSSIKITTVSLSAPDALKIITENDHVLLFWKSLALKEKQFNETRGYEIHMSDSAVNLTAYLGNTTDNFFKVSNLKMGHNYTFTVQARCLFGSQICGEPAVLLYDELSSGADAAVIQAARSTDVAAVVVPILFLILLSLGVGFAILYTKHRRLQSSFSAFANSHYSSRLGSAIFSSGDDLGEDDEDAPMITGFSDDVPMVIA
UniProt P15209, residues 32-821: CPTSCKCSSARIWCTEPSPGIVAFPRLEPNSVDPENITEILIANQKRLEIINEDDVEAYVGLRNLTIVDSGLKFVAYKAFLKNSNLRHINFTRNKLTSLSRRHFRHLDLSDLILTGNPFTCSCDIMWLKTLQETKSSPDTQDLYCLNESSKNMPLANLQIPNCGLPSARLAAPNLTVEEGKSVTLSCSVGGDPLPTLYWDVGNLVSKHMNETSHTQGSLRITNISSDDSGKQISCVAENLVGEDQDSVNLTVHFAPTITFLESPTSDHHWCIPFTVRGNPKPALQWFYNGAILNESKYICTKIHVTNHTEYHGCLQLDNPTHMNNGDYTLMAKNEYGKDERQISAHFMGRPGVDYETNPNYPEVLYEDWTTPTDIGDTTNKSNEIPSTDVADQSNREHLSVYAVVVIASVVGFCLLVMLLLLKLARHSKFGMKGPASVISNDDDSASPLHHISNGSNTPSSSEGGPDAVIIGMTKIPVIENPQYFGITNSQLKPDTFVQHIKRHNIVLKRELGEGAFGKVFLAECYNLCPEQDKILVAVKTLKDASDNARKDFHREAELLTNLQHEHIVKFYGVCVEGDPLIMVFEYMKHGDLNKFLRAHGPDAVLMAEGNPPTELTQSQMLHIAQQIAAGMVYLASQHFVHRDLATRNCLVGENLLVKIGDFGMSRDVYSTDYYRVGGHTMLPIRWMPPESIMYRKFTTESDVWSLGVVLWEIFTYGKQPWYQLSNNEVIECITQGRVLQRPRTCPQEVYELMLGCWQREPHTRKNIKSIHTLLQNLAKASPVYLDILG
UniProt Q6VNS1, residues 32-825: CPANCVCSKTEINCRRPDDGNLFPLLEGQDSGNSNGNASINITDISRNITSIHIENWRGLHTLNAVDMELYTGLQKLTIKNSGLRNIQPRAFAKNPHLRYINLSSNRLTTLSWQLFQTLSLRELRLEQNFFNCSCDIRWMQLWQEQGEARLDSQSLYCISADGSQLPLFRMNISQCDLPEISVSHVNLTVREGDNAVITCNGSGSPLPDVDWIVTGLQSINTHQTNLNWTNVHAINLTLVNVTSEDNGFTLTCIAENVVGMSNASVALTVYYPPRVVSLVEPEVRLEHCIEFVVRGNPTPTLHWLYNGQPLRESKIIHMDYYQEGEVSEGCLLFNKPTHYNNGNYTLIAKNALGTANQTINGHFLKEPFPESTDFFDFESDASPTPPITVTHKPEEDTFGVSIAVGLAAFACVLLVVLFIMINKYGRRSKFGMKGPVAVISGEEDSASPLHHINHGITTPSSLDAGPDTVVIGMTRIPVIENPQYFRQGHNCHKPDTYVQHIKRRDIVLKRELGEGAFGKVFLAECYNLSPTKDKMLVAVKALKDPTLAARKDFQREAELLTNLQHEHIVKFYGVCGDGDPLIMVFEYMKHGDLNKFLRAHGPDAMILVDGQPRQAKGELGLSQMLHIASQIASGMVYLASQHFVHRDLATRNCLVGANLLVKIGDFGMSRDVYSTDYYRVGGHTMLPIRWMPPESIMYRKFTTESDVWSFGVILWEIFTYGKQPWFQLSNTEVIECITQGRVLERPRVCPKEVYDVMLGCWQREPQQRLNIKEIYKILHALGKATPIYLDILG

Columns and labels:
[1] = target: T1, ARHGAP33 (mouse (endogenous in hippocampus)) (UniProt Q80YF9); assay: co-IP; anti-ARHGAP33 immunoprecipitates from hippocampal lysates of WT and ARHGAP33 KO mice; TNE buffer, antibody on ice 1 h, protein G-sepharose, five washes; immunoblot
T1 sequence: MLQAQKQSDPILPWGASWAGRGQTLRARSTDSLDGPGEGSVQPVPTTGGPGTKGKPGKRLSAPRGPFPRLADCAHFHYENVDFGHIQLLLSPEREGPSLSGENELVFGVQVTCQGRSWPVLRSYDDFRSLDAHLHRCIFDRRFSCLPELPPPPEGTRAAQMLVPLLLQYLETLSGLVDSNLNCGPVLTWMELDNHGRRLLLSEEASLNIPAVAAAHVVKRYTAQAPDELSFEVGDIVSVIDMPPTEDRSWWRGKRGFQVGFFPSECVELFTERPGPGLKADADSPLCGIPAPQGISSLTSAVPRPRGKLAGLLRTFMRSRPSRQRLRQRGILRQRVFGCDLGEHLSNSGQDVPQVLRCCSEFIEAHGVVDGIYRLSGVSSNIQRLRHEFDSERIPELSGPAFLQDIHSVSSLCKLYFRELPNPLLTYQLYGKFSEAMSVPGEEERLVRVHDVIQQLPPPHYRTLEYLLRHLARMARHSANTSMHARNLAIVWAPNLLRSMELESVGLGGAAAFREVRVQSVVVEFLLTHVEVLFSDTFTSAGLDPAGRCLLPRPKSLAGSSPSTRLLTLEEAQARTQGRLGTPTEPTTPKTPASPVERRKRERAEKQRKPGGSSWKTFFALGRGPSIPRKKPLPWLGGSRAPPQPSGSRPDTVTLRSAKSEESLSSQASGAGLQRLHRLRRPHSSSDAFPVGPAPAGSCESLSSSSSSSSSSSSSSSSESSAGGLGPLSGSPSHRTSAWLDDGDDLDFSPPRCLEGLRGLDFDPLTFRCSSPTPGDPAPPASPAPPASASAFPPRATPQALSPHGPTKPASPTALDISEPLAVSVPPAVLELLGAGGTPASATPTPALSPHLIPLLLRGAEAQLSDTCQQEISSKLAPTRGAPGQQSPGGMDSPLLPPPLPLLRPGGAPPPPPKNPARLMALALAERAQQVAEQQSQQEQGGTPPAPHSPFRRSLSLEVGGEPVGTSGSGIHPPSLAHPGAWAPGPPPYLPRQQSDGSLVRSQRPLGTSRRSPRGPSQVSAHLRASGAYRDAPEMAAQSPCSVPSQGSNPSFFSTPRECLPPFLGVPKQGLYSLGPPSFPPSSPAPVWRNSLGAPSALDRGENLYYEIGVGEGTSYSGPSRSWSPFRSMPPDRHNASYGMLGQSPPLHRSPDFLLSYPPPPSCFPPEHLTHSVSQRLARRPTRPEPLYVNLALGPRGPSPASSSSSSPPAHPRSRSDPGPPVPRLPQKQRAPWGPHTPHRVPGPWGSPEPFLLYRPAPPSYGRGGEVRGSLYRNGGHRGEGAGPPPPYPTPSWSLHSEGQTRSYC

[2] = target: sortilin (SORT1) (mouse (endogenous in hippocampus)) (UniProt Q6PHU5); assay: co-IP; anti-SORT1 immunoprecipitates from hippocampal lysates of WT and ARHGAP33 KO mice; TNE buffer, protein G-sepharose; immunoblot for TrkB

| Substance | binding [1] | binding [2] |
| --- | --- | --- |
| SorLA (from UniProt O88307 82-2215) (receptor) | no binding |  |
| TrkB (from UniProt P15209 32-821) (receptor) |  | binds |
| TrkC (from UniProt Q6VNS1 32-825) (receptor) | no binding |  |
| sortilin (SORT1) (from UniProt Q6PHU5 74-825) (receptor) | binds |  |
